According to PMC10653931:
These are yes or no findings as the source states them, for the method shown. Binding seen in cells or lysates may run through a third protein. Some binding calls cover weakened binding; strength is not graded here.

By UniProt entry, the sequences of proteins in these tests, tags left out.
UniProt Q13131: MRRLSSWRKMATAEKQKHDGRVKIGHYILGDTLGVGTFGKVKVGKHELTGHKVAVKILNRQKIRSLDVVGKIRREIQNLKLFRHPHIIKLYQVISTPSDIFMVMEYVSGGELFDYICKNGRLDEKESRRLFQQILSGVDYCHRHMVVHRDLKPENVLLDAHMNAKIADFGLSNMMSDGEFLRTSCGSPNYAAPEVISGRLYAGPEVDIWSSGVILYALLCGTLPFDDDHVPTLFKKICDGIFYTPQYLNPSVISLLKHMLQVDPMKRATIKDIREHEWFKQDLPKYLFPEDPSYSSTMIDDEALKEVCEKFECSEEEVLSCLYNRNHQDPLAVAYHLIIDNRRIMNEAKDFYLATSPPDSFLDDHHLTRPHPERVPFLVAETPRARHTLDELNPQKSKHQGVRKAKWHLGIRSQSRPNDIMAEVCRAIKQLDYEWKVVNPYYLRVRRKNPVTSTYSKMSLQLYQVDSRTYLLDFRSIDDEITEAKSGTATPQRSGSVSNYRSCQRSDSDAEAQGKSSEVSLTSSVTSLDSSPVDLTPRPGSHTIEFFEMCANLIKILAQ
UniProt Q8NHU6: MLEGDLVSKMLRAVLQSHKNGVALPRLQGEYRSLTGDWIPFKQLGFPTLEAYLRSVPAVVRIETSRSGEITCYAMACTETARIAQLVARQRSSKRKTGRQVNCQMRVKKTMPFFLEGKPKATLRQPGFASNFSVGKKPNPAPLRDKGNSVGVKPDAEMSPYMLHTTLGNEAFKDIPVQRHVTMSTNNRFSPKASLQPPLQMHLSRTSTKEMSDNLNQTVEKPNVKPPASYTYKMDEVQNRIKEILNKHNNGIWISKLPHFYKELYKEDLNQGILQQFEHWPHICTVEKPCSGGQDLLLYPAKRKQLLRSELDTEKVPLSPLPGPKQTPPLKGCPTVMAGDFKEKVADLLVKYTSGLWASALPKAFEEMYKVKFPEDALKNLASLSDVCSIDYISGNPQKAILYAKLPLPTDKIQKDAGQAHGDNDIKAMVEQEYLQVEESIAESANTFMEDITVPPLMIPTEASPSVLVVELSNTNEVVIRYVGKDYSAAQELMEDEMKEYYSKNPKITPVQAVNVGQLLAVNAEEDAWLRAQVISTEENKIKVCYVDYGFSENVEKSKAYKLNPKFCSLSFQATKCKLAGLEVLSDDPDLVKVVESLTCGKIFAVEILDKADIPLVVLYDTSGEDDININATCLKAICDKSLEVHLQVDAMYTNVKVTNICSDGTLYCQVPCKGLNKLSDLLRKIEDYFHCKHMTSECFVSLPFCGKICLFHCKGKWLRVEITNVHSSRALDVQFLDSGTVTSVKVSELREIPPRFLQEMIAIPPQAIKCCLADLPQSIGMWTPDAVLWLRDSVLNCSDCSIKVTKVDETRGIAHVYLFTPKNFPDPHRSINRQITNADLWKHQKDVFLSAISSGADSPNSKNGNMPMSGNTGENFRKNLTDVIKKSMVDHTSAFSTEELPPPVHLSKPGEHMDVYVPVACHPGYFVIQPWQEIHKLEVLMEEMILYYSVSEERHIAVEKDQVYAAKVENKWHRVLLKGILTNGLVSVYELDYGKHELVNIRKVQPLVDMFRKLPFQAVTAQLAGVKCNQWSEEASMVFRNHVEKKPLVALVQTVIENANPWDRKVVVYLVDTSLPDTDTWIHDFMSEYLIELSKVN

Target: His-AMPK (UniProt Q13131)
Assay: pull-down; HEK293T co-transfected with V5-TDRD7 constructs and His-AMPK; AMPK pulled down by Ni-NTA-agarose from lysates overnight at 4°C; immunoblot for TDRD7

binding: binds
Substance: V5-TDRD7 (human Tudor domain containing 7, wild type) (from UniProt Q8NHU6 1-1098)
